Measurements from PubChem BioAssay AID504582 (Broad Institute, 2011).
Values joined by “and” are separate entries in the source; they are usually repeats but may differ in a detail not shown here. Identical values can stand only once. The campaign covered roughly 340,000 compounds. About 2,300 (0.68%) were called active. Inconclusive means that the source gave no clear call. Such entries were picked first, then a sample of the others. Cut-off read from the data, not from the text of the source: active = growth rescue above about 28% (passing the limit was not always enough); inconclusive = no clear call, values can overlap the other calls. A structure can be active in one record and inactive in another.

Experiment: rescue of yeast from PfHsp40 toxicity, primary screen, S. cerevisiae, ATP luminescence (AID 504582);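 note: yeast W303a lacking pdr1 and pdr3 grown in galactose medium; growth measured after three days at 30 °C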
Details: S. cerevisiae expressing PfHsp40, growth rescue, at 12.5 µM, stronger effect = higher value

| SMILES | growth rescue |
| --- | --- |
| O=C1[C@H](Cc2ccccc2)NCC=CC[C@@H](c2ccc(Cl)cc2)N1Cc1ccc(Cl)cc1 | inconclusive: 88.1% |
| CNC(=O)c1cccn(Cc2ccc(C(F)(F)F)cc2)c1=O | inconclusive: 41% |
| COC(=O)[C@H]1[C@H]2C[C@H]3c4[nH]c5ccccc5c4CCN3C[C@@H]2CC[C@@H]1O | inconclusive: 35.3% |
| Cc1ccc(-c2c(C)sc3nc[nH]c(=O)c23)cc1C | inactive: 0.148% |
| CCOC(=O)c1ccccc1NC(=O)CSc1ccc(-c2ccccn2)nn1 | active: 211% |
| COCCNC(=O)Cc1c(C)c2c(cc(C)c3c(C(C)(C)C)coc32)oc1=O | inactive: 1.01% |
| CCCCN1C(=O)/C(=C/C=C2/CC(C)(C)CN2C)SC1=S | inactive: 0.934% |
| CCOC(=O)C(NC(=O)c1cccnc1)(Nc1cccc(C)n1)C(F)(F)F (centres undefined) | inactive: -0.225% |
| CSc1ccc2c(c1)C(N1CCN(C)CC1)Cc1ccccc1S2 (centres undefined) | inconclusive: 26% |
| Cc1ccc(NS(=O)(=O)c2ccc(N3CCN(c4ccc(O)cc4)CC3)c([N+](=O)[O-])c2)c(C)c1 | active: 69.8% |
| CNC(=O)/C(C#N)=C/c1c(N2CCCCCC2)nc2ccccn2c1=O | inactive: -0.496% |
| CCCCCCCCCS(=O)(=O)N/N=C/c1cccc([N+](=O)[O-])c1 | inconclusive: 26.9% |
| COc1ccc(/C=C2\SC(=O)N(CC(=O)NNC(=O)c3ccccc3O)C2=O)cc1OC | inconclusive: 34.9% |
| COc1ccc(OC)c(NC(=O)c2ccccc2OC(C)=O)c1 | inconclusive: 76.3% |
| CNc1cc(CSC)nc(SCc2ccc(Cl)cc2Cl)n1 | active: 308% |
| CCN(CC)C1CC(=O)N(c2ccc(Br)cc2)C1=O (centres undefined) | inconclusive: 48.3% |
| O=C(NCCCn1ccnc1)c1ccc(Br)cc1 | inactive: 0.115% |
| C/C(=N\NC(=O)c1ccccc1O)c1c(O)n(C2CCCCC2)c(=O)[nH]c1=O | active: 79.3% |
| COc1ccc(C(=O)NCCNc2nc3c(C)cccc3cc2C#N)cc1OC | inactive: 1.42% |
| O=C(NCc1ccccc1)N1CCCC1 | inconclusive: 52.3% |
| C/C=C1\COC(C(=O)NCc2cccc(OC)c2OC)(C(F)(F)F)C=C1C=C1CCCCC1 (centres undefined) | inconclusive: 27.2% |
| Cc1nc2cc([N+](=O)[O-])ccc2c(=O)n1-c1ccccc1[N+](=O)[O-] | inconclusive: 26% |
| O=C(Nc1ccc(Cl)cc1)C(Cl)C(=O)c1ccccc1 (centres undefined) | inconclusive: 271% |

| SMILES | growth rescue |
| --- | --- |
| CCOC(=O)c1c(C)[nH]c(C)c1C(=O)COC(=O)Cc1n[nH]c(=O)c2ccccc12 | inconclusive: 73.8% |
| CCOC(=O)CNC(=O)OC1CCN2Cc3ccccc3N=C12 (centres undefined) | inconclusive: 37% |
| COc1ccc2cnn(CCOc3cc(C)ccc3C(C)C)c(=O)c2c1OC | active: 320% |
| O=C(Nc1cccc2ccccc12)NC1CCCCC1 | inactive: -1.04% |
| Cc1nn(C(C)(C)C)c(OC(=O)c2cccs2)c1S(=O)(=O)c1ccccc1 | active: 66.8% |
| COc1ccc(C2Nc3ccccc3C(=O)N2NC(C)=O)cc1OC (centres undefined) | inconclusive: 39.7% |
| CCCN(Cc1cc2cccc(C)c2[nH]c1=O)C(=O)c1cccc(OC)c1 | active: 72.5% |
| COc1ccc2nc(N3C(=O)CNC3=S)sc2c1 | active: 32.1% |
| COc1ccc(CCNC(=O)COC(=O)c2ccc([N+](=O)[O-])o2)cc1 | active: 123% |
| Cc1cc(Cl)nc(NC(=O)Nc2cccc(Cl)c2)n1 | inactive: -0.042% |
| CC1(C)C=Cc2c(ccc3c2OC[C@H](c2ccc(O)cc2O)C3)O1 | inconclusive: 37% |
| COc1cc(/C=C/C(=O)c2ccc([N+](=O)[O-])o2)ccc1O | inactive: 18.7% |
| COCC(=O)N(Cc1cc2ccccc2[nH]c1=O)c1ccc(OC)cc1 | inconclusive: 29% |
| Cc1ccc(S(=O)(=O)Cc2ccc(C(=O)N3CCCC3)o2)cc1 | inactive: 0.336% |
| Cc1c(NC(=O)c2ccc(S(=O)(=O)N(C)C)cc2)cccc1-n1cnnn1 | inactive: 0.722% |
| Cc1nc2oc3c(NCc4ccccn4)ncnc3c2c2c1COC(C)(C)C2 | inconclusive: 56.4% |
| CCN(Cc1cc(=O)n2ccsc2n1)c1cccc2ccccc12 | active: 178% |
| Cc1cc(C)nc(SCc2cc(=O)c(OC(=O)c3ccc(S(=O)(=O)N4CCCC4)cc3)co2)n1 | active: 130% |
| COc1cc(C(=O)NCC(c2cccs2)N2CCOCC2)cc(Br)c1OCc1ccccc1 (centres undefined) | active: 132% |
| COc1ccc(Cl)cc1NC(=O)CNc1ccccc1CN(C)C1CCCCC1 | inconclusive: 39% |
| O=C(Cn1ncc2c3ccccc3n(Cc3ccc(F)cc3)c2c1=O)N1CCC2(CC1)OCCO2 | inconclusive: 28.3% |
| CCc1cccc(NC(=O)c2cnn(-c3ccccc3)c2C)c1 | active: 37.6% |
| COc1cccc2[nH]c3c(=O)n(CCN(C)C)cnc3c12 | inactive: -1.77% |

| SMILES | growth rescue |
| --- | --- |
| Cc1ccc(C(=O)N2CCN(C(=O)c3ccccc3)C2c2ccc(N(C)C)cc2)cc1 (centres undefined) | inconclusive: 29.6% |
| COc1cccc(/C=C2/C(=O)NN(c3ccccc3)C2=O)c1 | inconclusive: 46.1% |
| Oc1ccc(/C=C/c2ccc3cccc(O)c3n2)cc1Br | inconclusive: 117% |
| CCCOC(=O)Nc1cccc(C(C)=O)c1 | inconclusive: 27.3% |
| CCCN1C2CCCC1CC(NC(=O)c1cccc([N+](=O)[O-])c1)C2 (centres undefined) | inconclusive: 26.4% |
| C/C(CCc1oc2ccc(Cl)cc2c1-c1ccc(C)o1)=N\O | inconclusive: 393% |
| Cn1c(-c2cc3ccc(OC(=O)C(C)(C)C)cc3oc2=O)nc2ccccc21 | inactive: -0.005% |
| N/C(=N\OC(=O)COc1ccc(Cl)cc1Cl)c1ccncc1 | inconclusive: 33.6% |
| N#CC1=C(N)SC(N)=C(C#N)C1c1cccc(Oc2ccccc2)c1 | inconclusive: 26% |
| COc1ccc(/C=C/C(=O)c2ccoc2)cc1 | inconclusive: 37.8% |
| C/C(=N\NC(=O)c1ccco1)c1ccc(C(=O)O)s1 | inconclusive: 27.9% |
| COC(=O)c1cc(CNC(=O)c2ccccc2Cl)ccc1OC | active: 47.3% |
| CCCCCCCNC(=O)C1(CC2CC(c3cccc(Br)c3)=NO2)CCN(C(=O)CCCCCBr)CC1 (centres undefined) | active: 45.1% |
| N=C(N)c1ccc(OCCCCCOc2ccc(C(=N)N)cc2)cc1 | active: 112% |
| FC(F)(F)c1ccc(N2CCOCC2)c(Nc2nc3ccccc3n3cnnc23)c1 | inconclusive: 34% |
| Cc1cc(C)c(S(=O)(=O)/N=C2\C=C(Nc3ccc(C(=O)O)cc3)C(=O)c3ccccc32)c(C)c1 | inconclusive: 162% |
| COc1ccc(C=NNC(=O)c2ccccc2NS(=O)(=O)c2cccs2)cc1O | inactive: -0.876% |
| CCc1noc(C)c1C(=O)OCC(=O)NCc1ccc(Cl)cc1 | inconclusive: 28.2% |
| CC[C@H](C)/C=C/C1=CC2=C(Cl)C(=O)[C@@]3(C)OC(=O)C(C(=O)[C@H](C)[C@@H](C)O)=C3C2=CO1 | inconclusive: 107% |
| CCOC(=O)CC(=O)Nc1nnc(C(C)C)s1 | inactive: 0.598% |
| O=c1cc(N2CCCCC2)c(-c2ccccc2)nn1Cc1ccccc1Cl | inconclusive: 47.9% |
| O=C(OCC(=O)c1c[nH]c2ccccc12)c1cccc([N+](=O)[O-])c1 | inactive: 5.42% |
| C[C@H]1CCC/C=C/[C@@H]2C[C@H](O)C[C@H]2[C@H](O)/C=C/C(=O)O1 | active: 47.1% |

| SMILES | growth rescue |
| --- | --- |
| COc1ccccc1C1c2[nH]c3ccccc3c2C[C@H]2C(=O)N(C3CCN(Cc4ccccc4)CC3)CC(=O)N12 (some centres undefined) | inconclusive: 29.5% |
| O=C(O)c1[nH]c2ccccc2c1C(c1cc(Cl)cc([N+](=O)[O-])c1O)c1c(C(=O)O)[nH]c2ccccc12 | inconclusive: 25.6% |
| O=C(C1=C[C@H](c2csc3ccccc23)C[C@H](OCc2ccc(CO)cc2)O1)N1CCN(Cc2ccc3c(c2)OCO3)CC1 | inconclusive: 81.1% |
| O=C(NNc1nc2ccc(F)cc2s1)c1cccc(F)c1 | inconclusive: 25.9% |
| CN(C)c1ccc(/C=N/NC(=O)CNC(=O)/C=C/c2ccccc2)cc1 | inactive: 0.99% |
| O=C(Nc1ccc(Oc2ccc3ccccc3c2)cc1)c1ccco1 | inconclusive: 67% |
| COc1ccc2sc(-c3ccc(N(C)C)cc3)c(C#CCCO)c2c1 | inconclusive: 25.2% |
| O=C(Nc1ccn(Cc2ccc(Cl)cc2)n1)c1ccc2c(c1)OCO2 | inactive: 0.306% |
| NC(=S)Nc1cccc2cc3ccccc3cc12 | inconclusive: 26.7% |
| Cc1onc(-c2ccccc2)c1C(=O)NC(=S)NNC(=O)c1ccccc1O | inconclusive: 25.3% |
| CN(C)CCN(Cc1ccccc1)c1ccccn1 | inconclusive: 32.8% |
| Cc1cc(-c2cccnc2)c(C#N)c(SCc2cccc(F)c2)n1 | inactive: -0.194% |
| COc1cc(C)c(C(=O)Oc2cc(C)c(C(=O)O)c(O)c2C)c(O)c1C | inconclusive: 49.2% |
| COc1ccc(S(=O)(=O)Nc2ccc(N3CCOCC3)nc2)cc1 | inconclusive: 32.2% |
| O=C(CC(=O)c1cccc([N+](=O)[O-])c1)Nc1ccccc1Cl | inconclusive: 26.5% |
| CCCCN(CCCC)c1ncnc2nc[nH]c12 | active: 138% |
| Cc1cc2c([nH]c3ccccc32)c2c1OC(C)(C)C=C2 | inconclusive: 36.2% |
| CC(C)c1ccc(OCC(=O)Nc2ccncc2)cc1 | inconclusive: 31.3% |
| CCCOc1ccc(CSc2nc3ccccc3[nH]2)cc1 | inconclusive: 35.7% |
| CCCCCCCCCCOC(=O)Cn1c(COc2ccc(OC)cc2)[n+](C)c2ccccc21 | active: 383% and inconclusive: 35.9% |
